Source: ChEMBL document CHEMBL3988442, “University of Dundee, Small-Polar-MMV Screening Library” (2021).

Results are given as percent effect.
The record does not define 0% and 100%; most values in the screen are far below 50% and negative numbers occur (in some assays of this library far below -100).
This is an unselected part of the compounds tested.

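Assay of Toxoplasma gondii numbers, read through their beta-galactosidase reporter with a colour substrate. Concentration: 50 µM. The record gives no direction; the compounds picked for IC50 retests had high values, so higher reads as fewer parasites. Of about 18,000 compounds tested this way, about 170 (0.94%) reached 50% or more in at least one test.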

Compound | percent effect
NCc1ccc(N2CCOCC2)cc1 | -1.722%
CCC(C)C(=O)Nc1ccc2[nH]nc(C(=O)OC)c2c1 (stereo not shown) | -3.028%
O=C(NC1CCC(O)CC1)N1CCN(CC2CC2)CC1 (stereo not shown) | -4.611%
COC(=O)c1csc(NC(=O)CCn2cccn2)c1 | -10.72%
CCN(CCn1cccn1)C1CCN(C(C)=O)CC1 | -2.553%
CNc1nnc(SCc2csc(NC(C)=O)n2)s1 | -1.929%
CCN(CC)S(=O)(=O)c1csc(C(N)=O)c1 | -9.413%
Cc1cc(NCC(O)CO)c2cc(F)ccc2n1 (stereo not shown) | -2.329%
NCCCc1cccs1 | 17.49%
CNC(=O)CSc1ncc(Br)cn1 | 11.63%
COc1ccc(NC(=O)C(C)(C)N(C)C)cc1 | -0.1992%
Cc1cc(=O)n(CCN(C)CC2(C)COC2)c(=O)[nH]1 | -1.522%
O=C(NCC1CCN(C2CC2)C1)c1cccs1 (stereo not shown) | -3.019%
COc1ncccc1CNC(=O)NC(C)c1cccs1 (stereo not shown) | -5.263%
NC(=O)CS(=O)(=O)Cc1ccc(Cl)cc1 | -7.878%
NCC1(O)CCN(Cc2ccccc2)CC1 | -3.841%
CCN(CC1CCOC1)C(=O)CN(C)S(C)(=O)=O (stereo not shown) | -1.701%
CC(C)NC(=O)C(C)n1cncn1 (stereo not shown) | 7.173%
CS(=O)(=O)Nc1ccc(N2CCNCC2)cc1 | -2.329%
Cc1ccc(F)cc1CC(=O)N1CC[C@H](O)[C@@H](O)C1 | -1.152%
CNc1cc(OC)ccn1 | -16.02%
CC(C)NC(=O)CN(C)CC(=O)NC1(C#N)CCCC1 | -8.931%
COc1cc(CN(C)CCN(C)C)cc(OC)c1O | 6.115%
O=C(CCN1C(=O)CCC1=O)OCC(=O)c1ccc[nH]1 | -7.651%
CO[C@H]1C[C@@H](O)C12CCN(C(=O)Cc1cccs1)CC2 | 8.001%
COc1ccc(Cl)cc1NC(=O)CN1CC(N(C)C)C1 | -4.438%
CC(N)c1ccc(N2CCNC2=O)cc1 (stereo not shown) | -10.98%
CC(=O)NC(C)C(=O)Nc1ccc2c(c1)CCC2 (stereo not shown) | 0.5671%
CCCC(C)NC(=O)c1coc(C)n1 (stereo not shown) | 0.3128%
O=C(NCCc1ccccn1)Nc1cn[nH]c1 | -7.115%
CN(Cc1cccnc1)CC1CCNC1 (stereo not shown) | 17.71%
CCn1cc(C2CSCCN2)cn1 (stereo not shown) | -10.38%
CCC(CC)C(=O)Nc1ccc2c(c1)NC(=O)C(C)O2 (stereo not shown) | -3.138%
CC(O)CCN(C)c1nccnc1C#N (stereo not shown) | 2.972%
COc1cc(Br)c(S(=O)(=O)N2CCOCC2)cc1OC | 5.083%
O=C(CCC1CCCCC1)NCc1c[nH]nn1 | 1.133%
COC(=O)C(CC(C)C)NC(=O)CSc1nccn1C (stereo not shown) | 0.9564%
CN1CCCCC1C(=O)N1CCC(c2ncc[nH]2)CC1 (stereo not shown) | 0.2698%
CCN1CCN(C(=O)c2ccc(N)nc2)CC1 | 3.596%
CNC(=O)NC1CCC2(CC1)OCCO2 | 3.677%
O=C1CCOc2cc(O)c(F)cc21 | -11.53%
Cc1cc(C)nc(CN(C)CCC(=O)NC(C)C)c1 | 12.78%
Cc1noc(C(C)N2CCC(C)CC2)n1 (stereo not shown) | -4.665%
CC(NC(=O)C(C)(C)C)C(=O)NCc1ccccc1F (stereo not shown) | -7.634%
CC(C)c1nsc(NCC2=COCCO2)n1 | -1.035%
CCC(C)(CC)NC(=O)NC(C)CS(=O)(=O)CC (stereo not shown) | -0.9743%
CCC(=O)NCC(C)(NC(=O)CC)C(F)(F)F (stereo not shown) | -8.113%
Cc1cc(=O)[nH]c(CCNC(=O)[C@H]2CC[C@@H](N)C2)n1 | 2.921%
Cc1ncsc1CCN(C)C(=O)c1cnon1 | 17.04%
CC(C)NC(=O)Cn1nnc(-c2cccs2)n1 | -10.36%
Cc1cc(Br)cc(C(=O)OC(C)C(N)=O)c1 (stereo not shown) | -20.78%
COC(C)c1cccc(NCCCS(C)(=O)=O)c1 (stereo not shown) | 14.5%
CN(CC1(C)CCOCC1)C(=O)c1ccco1 | 2.54%
COCC(C)C(=O)Nc1ccc2c(c1)CCCN2 (stereo not shown) | 18.78%
COc1ccc(CC(=O)NCC2CCCNC2)cc1F (stereo not shown) | 55.41%
CC(C)C(=O)N1CCC(NC(=O)c2ccncc2)CC1 | -16.2%
Cc1noc(C)c1COC1CCNC1 (stereo not shown) | 7.368%
Cn1ncc2c(N3CCCCC3CN)ncnc21 (stereo not shown) | -15.26%
CCC(C)N(C)CCC(=O)Nc1ccc(C(N)=O)cc1 (stereo not shown) | -26.89%
COCCOC1CCN(C(=O)c2cn[nH]c2)CC1 | 4.568%
Cc1cc(NC(=O)CN(C)C)ccc1C(=O)NC(C)C | -18.92%
CC(N)C(=O)N(C)C1CCOCC1 (stereo not shown) | -25.47%
CCCNC(=O)CNC(=O)c1ccc(O)nc1 | -2.027%
c1cn(CC2CCNC2)nn1 (stereo not shown) | 9.609%
CSCC[C@H](N)C(=O)N1CCOC2(CCC2)C1 | 1.079%
CC1CN(C)CCN1CC(=O)NC(N)=O (stereo not shown) | 25.29%
COCC(=O)N[C@H]1CN(CCS(C)(=O)=O)C[C@@H]1C(C)C | -7.194%
C[C@H](N)c1ccco1 | 9.986%
COCc1nc(C)c(C(=O)NCC(=O)C(C)C)s1 | -6.09%
CCOc1nnc(CNCC2CCN(CCO)CC2)s1 | -3.564%
Cc1cc(NC(C)c2ccccn2)n2ncnc2n1 (stereo not shown) | 3.262%
COc1ccc(F)cc1N1CCNCC1 | -13.95%
Cn1c(=O)oc2cc(CNCCCS(C)(=O)=O)ccc21 | -16.74%
COCCN(CCCO)Cc1ccco1 | -0.7593%
O=C(NCC1CCNCC1)Nc1nncs1 | -2.573%
CNC(=O)c1cnc(OCC(F)(F)F)c(Cl)c1 | -6.494%
CCCC1c2nccn2CCCN1C(=O)c1cnco1 (stereo not shown) | -3.868%

Some entries from above, unchanged:

For O=C1CCOc2cc(O)c(F)cc21 the result was -11.53%.
For NCC1(O)CCN(Cc2ccccc2)CC1 the result was -3.841%.
For CCC(CC)C(=O)Nc1ccc2c(c1)NC(=O)C(C)O2 (stereo not shown) the result was -3.138%.
For CN(CC1(C)CCOCC1)C(=O)c1ccco1 the result was 2.54%.
For CCC(=O)NCC(C)(NC(=O)CC)C(F)(F)F (stereo not shown) the result was -8.113%.
For CNc1cc(OC)ccn1 the result was -16.02%.